Experimental data as given in paper PMC7819943, “Rice protein-binding microarrays: a tool to detect cis-acting elements near promoter regions in rice”.
Some of the results follow.

Target: T1, OsSMF1 (Oryza sativa, UniProt Q6ZLB0 1-436)
T1 sequence: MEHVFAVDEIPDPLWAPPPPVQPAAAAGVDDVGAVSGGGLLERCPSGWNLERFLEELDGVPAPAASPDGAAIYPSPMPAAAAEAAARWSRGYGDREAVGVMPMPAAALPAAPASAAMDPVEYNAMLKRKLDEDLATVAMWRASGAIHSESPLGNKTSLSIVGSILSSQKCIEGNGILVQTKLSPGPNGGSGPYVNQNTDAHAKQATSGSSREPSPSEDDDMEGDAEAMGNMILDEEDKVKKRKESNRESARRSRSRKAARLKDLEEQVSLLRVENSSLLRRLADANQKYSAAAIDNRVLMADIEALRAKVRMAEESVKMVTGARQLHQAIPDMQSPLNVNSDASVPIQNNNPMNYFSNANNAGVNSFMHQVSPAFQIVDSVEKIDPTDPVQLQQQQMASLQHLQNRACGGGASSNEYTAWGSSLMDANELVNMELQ
Test: protein-binding microarray (RPBM); PBS, 2% BSA, 51.3 ng/ul salmon testes DNA, 50 uM zinc acetate, 200 nM TF, 25 C, 1 h; high values mean tight binding
Settings: protein: recombinant; tags: N-terminal polyhistidine and DsRed monomer fusion (pET32a); chain copies: 2; label: CyDye5-dUTP incorporated in the synthesized complementary strand; 3' TTTTT single-stranded linker to array surface; dsDNA, one strand shown
Procedure, shortened: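 The binding signal is fluorescence intensity per array feature (arbitrary units). Readings came from an Axon 4000B scanner after a washed, 2% BSA-blocked, double-stranded custom Agilent array had been incubated for 1 h at 25 °C with 200 nM protein and 50 µM zinc acetate. The protein was a Ni–NTA-purified transcription factor fused N-terminally to polyhistidine and DsRed, expressed in E. coli BL21-CodonPlus.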

| Sequence | binding signal |
| --- | --- |
| CCTCCTCCCGGCTCGAGATCCGTGGCCACGACGCGTGGTGCGGAGTCACCTAGTGCAG | 5300 fluorescence intensity (a.u.) |
| TCTTCGGGAGGAGGCGCGGGGTCGGGCGGCGCCGATGGGGCGGAGTCACCTAGTGCAG | 3210 fluorescence intensity (a.u.) |
| GCTGGCATATGTATCCCTTACACATCATCACCCAGTGTTCCGGAGTCACCTAGTGCAG | 12900 fluorescence intensity (a.u.) |
| TTGGTCGCATTTCGGGTGGTGGTGGTGGTGGTGGTGGTGGCGGAGTCACCTAGTGCAG | 3870 fluorescence intensity (a.u.) |
| GCTCCATCCCTCTCTCTCGCCACGCGCTGCCGTCGTCGGCCGGAGTCACCTAGTGCAG | 3540 fluorescence intensity (a.u.) |
| TCGTAGAGTCGTATGGTGGCCAGCTTGAGGCCCTGACGCACGGAGTCACCTAGTGCAG | 17500 fluorescence intensity (a.u.) |
| TGCGACCAGCCCATTAACTTGTCCAGGACCAGCAACGCGGCGGAGTCACCTAGTGCAG | 3390 fluorescence intensity (a.u.) |
| AATAGGAAATAAACATTACTGAGAAAAGGGCTCATGTTGGCGGAGTCACCTAGTGCAG | 29300 fluorescence intensity (a.u.) |
| CCTCGTGTCCCTCGTCATCAAACCCCACCGCCACAAGGTACGGAGTCACCTAGTGCAG | 14100 fluorescence intensity (a.u.) |
| TAATGGAGTATGTGGTGGAGACACGTGGCAGTGTGACCGGCGGAGTCACCTAGTGCAG | 25200 fluorescence intensity (a.u.) |
| TAAGCTAACCTTGTACTAAGATGTGACACATCCAAGTACACGGAGTCACCTAGTGCAG | 3630 fluorescence intensity (a.u.) |
| CGCACGCACCCACACCAAACCAAACTCTACTCGATCTCCACGGAGTCACCTAGTGCAG | 3610 fluorescence intensity (a.u.) |
| CTACTGACACGTAGGTGCCACCATGGCATGCCACGTCAGCCGGAGTCACCTAGTGCAG | 61500 fluorescence intensity (a.u.) |
| GCTGCACCTGTTGTGGTGCCATCATCTGTTCCTATGCCTTCGGAGTCACCTAGTGCAG | 3180 fluorescence intensity (a.u.) |
| GGTTGGGTGAGTGACTCATCCAGCCGTGTGTATGTACAAACGGAGTCACCTAGTGCAG | 7000 fluorescence intensity (a.u.) |
| GCACCTGCTGCAAGCCACCCAGGCTATGGTCAGCAGCAGTCGGAGTCACCTAGTGCAG | 3480 fluorescence intensity (a.u.) |
| TTGCGGACCACATTAACTCCACTCCACGCGTACATCCAGCCGGAGTCACCTAGTGCAG | 5280 fluorescence intensity (a.u.) |
| TTTCTATGAAAAGACGATGACATGGACGATGATGTGTACGCGGAGTCACCTAGTGCAG | 8180 fluorescence intensity (a.u.) |
| TGCGCAACTTGCCAACTTCTCAAGATTTTGATATAGGGTGCGGAGTCACCTAGTGCAG | 16700 fluorescence intensity (a.u.) |
| TTTACTTTAGTGCTACGTAAGCGCCACGTCGATGCACATACGGAGTCACCTAGTGCAG | 10000 fluorescence intensity (a.u.) |
| CTTGCTGCAAGCAACCAAGAAGTCACACCCACGTGGAGAACGGAGTCACCTAGTGCAG | 5130 fluorescence intensity (a.u.) |

| Sequence | binding signal |
| --- | --- |
| GCTGCTGATGGTGATGATGACGATGATTAATGGCGGATTACGGAGTCACCTAGTGCAG | 5810 fluorescence intensity (a.u.) |
| ACTTAACGTGATGGAATGGCATCCATAATATTCGTCCACCCGGAGTCACCTAGTGCAG | 3140 fluorescence intensity (a.u.) |
| AAACATGCCGCCAAATTAAATTCGCCTAAAATACCAATCACGGAGTCACCTAGTGCAG | 17000 fluorescence intensity (a.u.) |
| GTCGCGCCTGACGCCGCCGTTGCGCCTGCCACCGCCTGTCCGGAGTCACCTAGTGCAG | 4410 fluorescence intensity (a.u.) |
| GATCATTACGTCCAAGTGATTTCATCCTGAAATGACGTCACGGAGTCACCTAGTGCAG | 5800 fluorescence intensity (a.u.) |
| GCCCGTTAGAGATGAGAGTCATCCGTGACGTGCTATAATCCGGAGTCACCTAGTGCAG | 3540 fluorescence intensity (a.u.) |
| ACCTGAAGACACGTGTGGTCTATCTGAGCTTTGTGATCAGCGGAGTCACCTAGTGCAG | 9840 fluorescence intensity (a.u.) |
| GGGGAAAGAAAGGGTGTGACGTGGCATCCTGACATGTGGGCGGAGTCACCTAGTGCAG | 12600 fluorescence intensity (a.u.) |
| GCAACGACGGCGGCGGCGGCGAGCTCGATGGGCGATGACGCGGAGTCACCTAGTGCAG | 3400 fluorescence intensity (a.u.) |
| AAATCGGCGCATTACTAGCACGGCGCCACGGCCACGCGCACGGAGTCACCTAGTGCAG | 3470 fluorescence intensity (a.u.) |
| AGGTTAGCAACTATGAATCACAATAAGTTAGAGCACGTACCGGAGTCACCTAGTGCAG | 3400 fluorescence intensity (a.u.) |
| GAGTCGCCGCCTTGCGCCCTCGCCAGTCACCCTGCGCGTTCGGAGTCACCTAGTGCAG | 4680 fluorescence intensity (a.u.) |
| TGAAAGGTACAGACAGACAGACAAACAGCAGTGGTCGCCACGGAGTCACCTAGTGCAG | 9780 fluorescence intensity (a.u.) |
| AATTGCCAGTTTGCCACGGTGCGCTGAATTACTAGATTCGCGGAGTCACCTAGTGCAG | 3680 fluorescence intensity (a.u.) |
| TTCTGTAACATAGGCTAACGTCAACGTGGCATTCATTTTGCGGAGTCACCTAGTGCAG | 13200 fluorescence intensity (a.u.) |
| TTTGCCGCATCCCCTCATCTGACACGAAATTTGGTAGAGTCGGAGTCACCTAGTGCAG | 4120 fluorescence intensity (a.u.) |
| TTGAGGAAATAAGAGGAGTGTGACAAAGCATCAGTTGCATCGGAGTCACCTAGTGCAG | 3260 fluorescence intensity (a.u.) |
| ACATACGTTTGGATTGCCAACCGTGACAAGCCGATCACTGCGGAGTCACCTAGTGCAG | 3400 fluorescence intensity (a.u.) |
| GACACACCGTTTAGTAGTTTGGAAAGCGTGCGTGTGGAAACGGAGTCACCTAGTGCAG | 26300 fluorescence intensity (a.u.) |
| GCACTTCGGAAGGCGATTCTGAGGTCGACCTCGGGAAGGTCGGAGTCACCTAGTGCAG | 3150 fluorescence intensity (a.u.) |
| TGGACTAGGATGTGTCTCATCTAGTCATAAGTTGTTATATCGGAGTCACCTAGTGCAG | 4210 fluorescence intensity (a.u.) |

Quoted from the results shown for reference:

| Sequence | binding signal |
| --- | --- |
| TTGAGGAAATAAGAGGAGTGTGACAAAGCATCAGTTGCATCGGAGTCACCTAGTGCAG | 3260 fluorescence intensity (a.u.) |
| ACATACGTTTGGATTGCCAACCGTGACAAGCCGATCACTGCGGAGTCACCTAGTGCAG | 3400 fluorescence intensity (a.u.) |
| GACACACCGTTTAGTAGTTTGGAAAGCGTGCGTGTGGAAACGGAGTCACCTAGTGCAG | 26300 fluorescence intensity (a.u.) |
| GCACTTCGGAAGGCGATTCTGAGGTCGACCTCGGGAAGGTCGGAGTCACCTAGTGCAG | 3150 fluorescence intensity (a.u.) |
